These are yes or no findings as the source states them, for the method shown. In cells and extracts the contact can be indirect. Some entries that bind do so weakly or less than the wild type. Sequences can lack the tags named with a protein.
Legend:
[1] = target: T1, HA-SMEK1 (Suppressor of Mek1) (human) (UniProt Q6IN85); test: co-IP; HEK 293T cells co-transfected; lysed in cold IP lysis buffer by ultrasonography; extracts incubated with primary antibodies and Dynabeads Protein G at 4 °C for 3 h; immunoblot; which antibody precipitated is not told
T1 sequence: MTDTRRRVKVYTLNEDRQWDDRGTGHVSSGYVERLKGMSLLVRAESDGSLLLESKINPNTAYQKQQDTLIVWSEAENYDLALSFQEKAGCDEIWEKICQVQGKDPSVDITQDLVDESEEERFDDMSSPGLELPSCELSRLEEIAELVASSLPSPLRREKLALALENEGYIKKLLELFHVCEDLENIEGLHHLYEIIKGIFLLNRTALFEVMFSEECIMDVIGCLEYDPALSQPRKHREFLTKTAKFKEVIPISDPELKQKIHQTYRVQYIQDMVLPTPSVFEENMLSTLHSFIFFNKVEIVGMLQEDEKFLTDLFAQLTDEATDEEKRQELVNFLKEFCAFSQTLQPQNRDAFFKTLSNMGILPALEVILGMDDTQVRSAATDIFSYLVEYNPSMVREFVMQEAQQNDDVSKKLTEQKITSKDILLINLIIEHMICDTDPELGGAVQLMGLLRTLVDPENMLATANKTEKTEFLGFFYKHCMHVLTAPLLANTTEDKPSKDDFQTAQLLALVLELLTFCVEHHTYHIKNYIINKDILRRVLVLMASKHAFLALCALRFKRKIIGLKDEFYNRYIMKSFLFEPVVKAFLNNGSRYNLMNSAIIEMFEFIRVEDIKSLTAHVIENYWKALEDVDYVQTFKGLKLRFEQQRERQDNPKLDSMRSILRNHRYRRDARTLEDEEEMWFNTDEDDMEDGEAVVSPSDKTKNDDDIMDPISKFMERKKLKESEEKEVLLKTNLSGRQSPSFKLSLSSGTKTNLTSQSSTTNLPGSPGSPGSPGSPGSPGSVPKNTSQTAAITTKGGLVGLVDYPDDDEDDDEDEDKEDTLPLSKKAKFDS

Amino acid sequences for entries named in this document (tags omitted).
UniProt O00139: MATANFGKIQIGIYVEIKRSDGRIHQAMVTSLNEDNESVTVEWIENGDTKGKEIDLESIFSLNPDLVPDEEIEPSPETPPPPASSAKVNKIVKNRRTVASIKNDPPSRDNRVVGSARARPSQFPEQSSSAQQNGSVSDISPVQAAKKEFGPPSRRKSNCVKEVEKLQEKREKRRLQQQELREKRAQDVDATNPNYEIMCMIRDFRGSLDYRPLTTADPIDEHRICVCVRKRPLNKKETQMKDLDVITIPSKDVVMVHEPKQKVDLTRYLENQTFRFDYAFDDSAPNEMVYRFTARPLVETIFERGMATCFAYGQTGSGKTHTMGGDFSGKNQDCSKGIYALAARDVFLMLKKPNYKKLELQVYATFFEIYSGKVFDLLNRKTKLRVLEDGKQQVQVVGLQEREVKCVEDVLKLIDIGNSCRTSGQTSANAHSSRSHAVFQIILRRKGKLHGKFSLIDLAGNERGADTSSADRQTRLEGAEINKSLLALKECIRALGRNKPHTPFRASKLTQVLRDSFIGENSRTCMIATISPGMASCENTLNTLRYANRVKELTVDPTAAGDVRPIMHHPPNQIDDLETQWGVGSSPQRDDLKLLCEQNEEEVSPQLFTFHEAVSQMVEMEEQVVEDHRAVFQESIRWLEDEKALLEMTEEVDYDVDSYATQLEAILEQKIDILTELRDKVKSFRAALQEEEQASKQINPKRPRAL

[2] = target: T1, HA-SMEK1 (Suppressor of Mek1) (human); test: proximity ligation; Duolink in situ proximity ligation assay of Myc-KIF2A and HA-SMEK1 in the HEK 293T cell line

binding [1]: binds
binding [2]: binds
Substance: Myc-KIF2A (kinesin family member 2A) (from UniProt O00139 1-706)
